From the supplement of paper PMC12067093, “Discovery and optimisation of a covalent ligand for TRIM25 and its application to targeted protein ubiquitination” (Chemical Science, 2025)
The list shows a part of the results.

Protein sequences, listed by entry. Tags and fused reporters are not part of them. Lines headed by an entry give the natural chain unless they say otherwise; changes in a name come on top.
UniProt Q5T6V5: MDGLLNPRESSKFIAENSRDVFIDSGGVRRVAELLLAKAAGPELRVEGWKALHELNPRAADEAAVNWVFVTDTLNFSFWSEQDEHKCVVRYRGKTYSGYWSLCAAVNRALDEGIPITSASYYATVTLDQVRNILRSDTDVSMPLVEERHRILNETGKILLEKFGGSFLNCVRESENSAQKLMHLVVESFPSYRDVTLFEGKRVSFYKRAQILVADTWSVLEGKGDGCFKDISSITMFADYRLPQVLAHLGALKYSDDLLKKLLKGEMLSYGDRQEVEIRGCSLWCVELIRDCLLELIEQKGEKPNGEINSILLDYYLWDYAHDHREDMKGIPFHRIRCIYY
UniProt Q5T5Y3: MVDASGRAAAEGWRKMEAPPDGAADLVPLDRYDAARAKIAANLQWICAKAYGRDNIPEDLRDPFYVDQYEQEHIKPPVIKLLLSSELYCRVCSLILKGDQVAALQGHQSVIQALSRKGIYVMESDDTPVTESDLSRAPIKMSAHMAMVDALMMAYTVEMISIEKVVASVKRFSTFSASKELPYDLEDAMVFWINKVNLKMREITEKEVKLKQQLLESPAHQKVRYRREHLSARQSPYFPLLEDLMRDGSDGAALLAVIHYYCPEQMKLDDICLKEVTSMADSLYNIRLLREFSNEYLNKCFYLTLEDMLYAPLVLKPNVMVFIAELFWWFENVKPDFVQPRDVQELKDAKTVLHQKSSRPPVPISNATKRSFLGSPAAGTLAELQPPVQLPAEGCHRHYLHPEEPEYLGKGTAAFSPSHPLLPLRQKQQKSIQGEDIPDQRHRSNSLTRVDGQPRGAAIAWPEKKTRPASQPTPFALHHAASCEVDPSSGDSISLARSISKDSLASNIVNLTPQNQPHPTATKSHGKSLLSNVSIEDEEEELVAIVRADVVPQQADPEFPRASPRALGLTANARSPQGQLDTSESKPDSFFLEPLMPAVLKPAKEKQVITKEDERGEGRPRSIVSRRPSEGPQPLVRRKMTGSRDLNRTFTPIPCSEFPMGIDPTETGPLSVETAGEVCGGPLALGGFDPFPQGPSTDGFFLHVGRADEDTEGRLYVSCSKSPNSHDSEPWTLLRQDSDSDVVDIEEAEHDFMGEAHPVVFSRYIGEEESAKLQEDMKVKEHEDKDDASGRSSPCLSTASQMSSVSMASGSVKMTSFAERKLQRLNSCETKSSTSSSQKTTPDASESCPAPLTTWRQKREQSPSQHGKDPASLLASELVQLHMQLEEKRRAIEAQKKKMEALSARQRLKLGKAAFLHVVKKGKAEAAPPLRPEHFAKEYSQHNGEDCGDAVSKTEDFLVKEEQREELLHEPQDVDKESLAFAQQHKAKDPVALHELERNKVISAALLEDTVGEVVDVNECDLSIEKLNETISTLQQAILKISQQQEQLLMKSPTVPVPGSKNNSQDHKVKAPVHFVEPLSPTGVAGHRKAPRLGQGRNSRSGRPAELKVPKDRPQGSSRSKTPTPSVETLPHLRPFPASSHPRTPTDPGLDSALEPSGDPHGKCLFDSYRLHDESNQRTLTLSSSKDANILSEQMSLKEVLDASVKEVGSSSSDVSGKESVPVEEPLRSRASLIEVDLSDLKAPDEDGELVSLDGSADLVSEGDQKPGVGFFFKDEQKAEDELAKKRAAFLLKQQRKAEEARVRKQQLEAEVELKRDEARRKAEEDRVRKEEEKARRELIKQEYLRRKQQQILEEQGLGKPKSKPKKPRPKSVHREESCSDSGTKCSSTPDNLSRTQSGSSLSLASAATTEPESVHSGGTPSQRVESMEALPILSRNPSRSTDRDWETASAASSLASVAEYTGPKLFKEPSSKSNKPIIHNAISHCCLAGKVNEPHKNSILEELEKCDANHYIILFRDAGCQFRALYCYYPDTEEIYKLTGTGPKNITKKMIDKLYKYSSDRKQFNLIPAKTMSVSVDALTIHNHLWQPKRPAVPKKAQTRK
UniProt P27708: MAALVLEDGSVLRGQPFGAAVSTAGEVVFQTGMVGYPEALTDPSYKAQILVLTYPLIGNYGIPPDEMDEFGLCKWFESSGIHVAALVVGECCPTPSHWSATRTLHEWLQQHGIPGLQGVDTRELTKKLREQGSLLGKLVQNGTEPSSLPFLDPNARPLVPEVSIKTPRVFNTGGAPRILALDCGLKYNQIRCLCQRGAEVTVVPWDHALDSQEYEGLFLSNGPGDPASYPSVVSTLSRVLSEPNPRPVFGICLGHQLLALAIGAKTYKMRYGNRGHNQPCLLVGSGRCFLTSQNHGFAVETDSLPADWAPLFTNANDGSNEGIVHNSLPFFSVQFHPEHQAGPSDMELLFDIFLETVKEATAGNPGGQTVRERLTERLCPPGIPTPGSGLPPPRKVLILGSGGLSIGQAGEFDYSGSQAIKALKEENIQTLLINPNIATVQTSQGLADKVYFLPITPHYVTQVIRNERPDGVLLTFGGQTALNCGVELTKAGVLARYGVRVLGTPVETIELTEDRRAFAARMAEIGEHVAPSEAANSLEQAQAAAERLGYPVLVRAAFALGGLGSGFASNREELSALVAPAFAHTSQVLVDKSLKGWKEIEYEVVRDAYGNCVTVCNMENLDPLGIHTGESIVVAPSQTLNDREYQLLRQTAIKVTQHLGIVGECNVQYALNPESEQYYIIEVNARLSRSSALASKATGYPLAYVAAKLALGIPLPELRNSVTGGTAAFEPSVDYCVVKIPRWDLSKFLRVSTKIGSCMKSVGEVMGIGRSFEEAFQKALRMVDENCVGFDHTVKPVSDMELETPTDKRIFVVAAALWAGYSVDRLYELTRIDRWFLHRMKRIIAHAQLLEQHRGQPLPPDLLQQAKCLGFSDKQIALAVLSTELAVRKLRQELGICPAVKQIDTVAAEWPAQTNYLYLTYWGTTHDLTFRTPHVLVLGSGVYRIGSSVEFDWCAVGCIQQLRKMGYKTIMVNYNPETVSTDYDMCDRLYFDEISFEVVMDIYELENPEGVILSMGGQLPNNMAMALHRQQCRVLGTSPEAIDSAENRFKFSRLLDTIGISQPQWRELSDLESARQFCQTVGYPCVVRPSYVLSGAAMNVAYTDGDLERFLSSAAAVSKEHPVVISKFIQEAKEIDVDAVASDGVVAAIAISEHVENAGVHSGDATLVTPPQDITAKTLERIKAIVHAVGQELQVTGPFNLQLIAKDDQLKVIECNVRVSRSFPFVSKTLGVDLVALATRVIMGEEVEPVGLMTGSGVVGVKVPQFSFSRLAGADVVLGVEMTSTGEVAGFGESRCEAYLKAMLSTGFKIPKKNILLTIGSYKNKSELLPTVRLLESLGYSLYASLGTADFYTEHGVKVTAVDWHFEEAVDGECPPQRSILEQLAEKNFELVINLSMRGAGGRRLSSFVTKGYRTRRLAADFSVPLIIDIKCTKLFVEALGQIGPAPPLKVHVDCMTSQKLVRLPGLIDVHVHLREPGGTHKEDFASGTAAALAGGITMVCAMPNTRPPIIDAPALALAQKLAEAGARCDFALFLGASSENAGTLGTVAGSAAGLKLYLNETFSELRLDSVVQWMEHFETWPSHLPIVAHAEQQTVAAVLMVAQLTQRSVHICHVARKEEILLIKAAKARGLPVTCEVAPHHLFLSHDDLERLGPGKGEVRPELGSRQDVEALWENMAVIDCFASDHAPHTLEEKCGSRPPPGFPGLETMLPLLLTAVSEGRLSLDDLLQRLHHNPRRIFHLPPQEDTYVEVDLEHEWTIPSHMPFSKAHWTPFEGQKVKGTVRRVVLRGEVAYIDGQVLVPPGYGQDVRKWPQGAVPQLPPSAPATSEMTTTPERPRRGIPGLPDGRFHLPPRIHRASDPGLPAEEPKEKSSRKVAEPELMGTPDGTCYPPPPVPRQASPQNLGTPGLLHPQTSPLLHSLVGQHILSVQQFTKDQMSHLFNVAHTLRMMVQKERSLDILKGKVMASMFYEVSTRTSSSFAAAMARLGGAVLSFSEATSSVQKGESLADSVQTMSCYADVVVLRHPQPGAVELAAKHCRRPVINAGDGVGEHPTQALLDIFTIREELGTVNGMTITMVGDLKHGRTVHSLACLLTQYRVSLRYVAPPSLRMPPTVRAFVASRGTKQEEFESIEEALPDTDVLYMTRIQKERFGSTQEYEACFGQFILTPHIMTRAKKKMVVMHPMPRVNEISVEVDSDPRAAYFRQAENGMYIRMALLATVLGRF
UniProt P41223: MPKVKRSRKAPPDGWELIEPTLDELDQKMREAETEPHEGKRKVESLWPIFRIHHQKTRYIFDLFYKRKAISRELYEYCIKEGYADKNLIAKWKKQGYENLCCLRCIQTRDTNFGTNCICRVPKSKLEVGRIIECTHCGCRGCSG
UniProt Q13557, whole entry, looked up: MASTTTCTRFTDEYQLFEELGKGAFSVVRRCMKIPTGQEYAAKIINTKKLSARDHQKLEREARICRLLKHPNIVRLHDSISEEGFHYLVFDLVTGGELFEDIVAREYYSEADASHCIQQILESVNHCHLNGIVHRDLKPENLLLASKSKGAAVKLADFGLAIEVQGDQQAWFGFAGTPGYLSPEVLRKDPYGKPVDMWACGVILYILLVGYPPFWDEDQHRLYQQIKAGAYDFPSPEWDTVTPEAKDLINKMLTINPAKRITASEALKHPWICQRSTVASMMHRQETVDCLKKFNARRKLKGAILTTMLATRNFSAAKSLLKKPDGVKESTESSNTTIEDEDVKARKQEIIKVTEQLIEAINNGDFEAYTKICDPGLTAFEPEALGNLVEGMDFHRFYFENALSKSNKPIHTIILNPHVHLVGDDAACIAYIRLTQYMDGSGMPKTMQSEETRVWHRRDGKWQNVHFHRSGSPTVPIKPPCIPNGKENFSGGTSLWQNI
UniProt Q9NPI1: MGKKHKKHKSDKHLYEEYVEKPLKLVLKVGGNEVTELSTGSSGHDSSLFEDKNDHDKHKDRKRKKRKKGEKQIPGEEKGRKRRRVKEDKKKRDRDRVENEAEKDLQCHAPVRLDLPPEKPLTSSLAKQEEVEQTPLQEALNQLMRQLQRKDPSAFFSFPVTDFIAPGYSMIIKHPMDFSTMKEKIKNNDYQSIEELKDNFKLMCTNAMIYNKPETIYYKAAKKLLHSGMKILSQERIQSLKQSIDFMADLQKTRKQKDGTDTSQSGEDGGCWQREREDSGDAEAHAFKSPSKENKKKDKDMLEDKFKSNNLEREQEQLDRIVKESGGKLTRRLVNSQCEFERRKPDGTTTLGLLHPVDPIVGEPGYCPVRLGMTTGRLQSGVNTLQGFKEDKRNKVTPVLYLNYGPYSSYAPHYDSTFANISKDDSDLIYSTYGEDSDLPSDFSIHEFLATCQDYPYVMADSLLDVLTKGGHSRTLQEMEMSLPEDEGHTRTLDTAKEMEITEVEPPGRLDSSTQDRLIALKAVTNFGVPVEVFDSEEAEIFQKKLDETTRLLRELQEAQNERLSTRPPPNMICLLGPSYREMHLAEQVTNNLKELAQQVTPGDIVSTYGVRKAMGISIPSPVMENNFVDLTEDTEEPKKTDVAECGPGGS
UniProt O95696: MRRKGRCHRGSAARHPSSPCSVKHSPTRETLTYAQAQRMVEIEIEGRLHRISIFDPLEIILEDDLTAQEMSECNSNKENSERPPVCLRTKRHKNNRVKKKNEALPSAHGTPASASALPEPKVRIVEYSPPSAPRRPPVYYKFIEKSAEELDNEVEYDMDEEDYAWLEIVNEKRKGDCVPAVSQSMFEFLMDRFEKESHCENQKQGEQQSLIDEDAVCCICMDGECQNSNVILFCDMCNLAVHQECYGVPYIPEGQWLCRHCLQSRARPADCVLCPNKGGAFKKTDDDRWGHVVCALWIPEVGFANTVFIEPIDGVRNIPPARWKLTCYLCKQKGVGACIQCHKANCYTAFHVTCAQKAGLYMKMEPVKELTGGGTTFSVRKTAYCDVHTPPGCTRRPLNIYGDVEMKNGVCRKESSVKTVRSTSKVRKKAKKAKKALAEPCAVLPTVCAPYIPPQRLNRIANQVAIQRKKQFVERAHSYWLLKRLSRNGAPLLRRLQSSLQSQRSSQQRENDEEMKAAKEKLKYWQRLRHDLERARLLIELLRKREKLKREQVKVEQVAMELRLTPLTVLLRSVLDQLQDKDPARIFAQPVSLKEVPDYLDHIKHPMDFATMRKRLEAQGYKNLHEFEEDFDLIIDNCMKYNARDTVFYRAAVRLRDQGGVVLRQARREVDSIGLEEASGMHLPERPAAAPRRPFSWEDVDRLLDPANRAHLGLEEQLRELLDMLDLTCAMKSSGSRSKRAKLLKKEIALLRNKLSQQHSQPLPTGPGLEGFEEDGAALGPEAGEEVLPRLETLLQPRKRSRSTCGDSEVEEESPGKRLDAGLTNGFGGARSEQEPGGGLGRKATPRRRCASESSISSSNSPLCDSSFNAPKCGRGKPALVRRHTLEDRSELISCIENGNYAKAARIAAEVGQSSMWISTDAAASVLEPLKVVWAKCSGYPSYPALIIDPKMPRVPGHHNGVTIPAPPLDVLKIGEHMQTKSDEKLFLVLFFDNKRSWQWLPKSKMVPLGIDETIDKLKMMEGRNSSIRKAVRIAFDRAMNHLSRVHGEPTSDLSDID

Compound: CC1Cc2ccccc2N1C(=O)C1CCCN(C1)C(=O)CCl (mixture of isomers) [TRIM25 ligand 11 (diastereomer mixture)]
Experiment: probe-labelled cysteine peptide fold change vs DMSO (competition) (log2 fold change); higher = less target engagement (more negative = stronger competition)
Details: THP-1, incubation time: 4 h
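Further: competitive chemoproteomic profiling in live THP-1 cells with an iodoacetamide desthiobiotin (IA-DTB) probe, comparing probe-labelled peptide intensities in compound-treated cells against DMSO-treated controls.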

| Target | probe-labelled cysteine peptide fold change (10 µM) | probe-labelled cysteine peptide fold change (50 µM) |
| --- | --- | --- |
| BUB1_O43683_1013_NEGGECKPEGLFR (UniProt O43683) | 0.0232 | 0.163 |
| C9orf64_Q5T6V5_281_GCSLWCVELIR (UniProt Q5T6V5) | 0.497 | 0.233 |
| BRAT1_Q6PJG6_289_ALSCLGPTHMGPLALGILK (UniProt Q6PJG6) | -0.0772 | 0.0172 |
| CA13_Q8N1Q1_232_SLLCTAEGEAAAFLVSNHRPPQPLK (UniProt Q8N1Q1) | 0.0472 | -0.0948 |
| BTAF1_O14981_1401_FNYCILDEGHVIK (UniProt O14981) | 0.0958 | 0.067 |
| C12orf4_Q9NQ89_350_DFATVCQECTDFHFPR (UniProt Q9NQ89) | -0.0183 | -0.16 |
| CAMSAP1_Q5T5Y3_947_EYSQHNGEDCGDAVSK (UniProt Q5T5Y3) | -0.0358 | -0.206 |
| C3_P01024_1637_DTWVEHWPEEDECQDEENQK (UniProt P01024) | 0.059 | -0.13 |
| C12orf29_Q8N999_117_EFFWNVEEDFKPAPECWIPAK (UniProt Q8N999) | 0.0764 | -0.16 |
| C19orf54_Q5BKX5_226_DLVLQHLVTGHPLLIPYDEDFNHEPCQR (UniProt Q5BKX5) | 0.129 | -0.00339 |
| C5orf22_Q49AR2_195_LALEDSENTASTNCDSSSEGLEK (UniProt Q49AR2) | 0.0758 | 0.0268 |
| CAD_P27708_1455_VHVDCMTSQK (UniProt P27708) | 0.0559 | -0.0142 |
| BSDC1_Q9NW68_49_DLTEFTQVVQHDTACTIAATASVVK (UniProt Q9NW68) | 0.00715 | -0.279 |
| C8orf88_P0DMB2_93_LSSVSICR (UniProt P0DMB2) | -0.198 | -0.199 |
| BUD31_P41223_134_IIECTHCGCR (UniProt P41223) | 0.0669 | 0.255 |
| CAMK2D_Q13557_290_QETVDCLK (UniProt Q13557) | -0.0938 | 0.00941 |
| C11orf68_Q9H3H3_263_WHLCPTLYESR (UniProt Q9H3H3) | -0.0207 | 0.1 |
| BUD31_P41223_119_DTNFGTNCICR (UniProt P41223) | -0.0667 | 0.0804 |

| Target | probe-labelled cysteine peptide fold change (10 µM) | probe-labelled cysteine peptide fold change (50 µM) |
| --- | --- | --- |
| C7orf43_Q8WVR3_305_LPGTSGCFPCPLNALEEHNFLFQLR (UniProt Q8WVR3) | -0.113 | 0.0785 |
| CAD_P27708_2161_FGSTQEYEACFGQFILTPHIMTR (UniProt P27708) | -0.0115 | 0.0109 |
| BST1_Q10588_259_DMGFQYSCINDYRPVK (UniProt Q10588) | 0.0142 | 0.0159 |
| C2CD2L_O14523_385_QLCPLTPGPGK (UniProt O14523) | -0.071 | -0.253 |
| BRD7_Q9NPI1_574_LSTRPPPNMICLLGPSYR (UniProt Q9NPI1) | -0.0869 | -0.299 |
| CAND1_Q86VP6_71_CLGPLVSK (UniProt Q86VP6) | 0.134 | 0.162 |
| CALR_P27797_137_LFPNSLDQTDMHGDSEYNIMFGPDICGPGTK (UniProt P27797) | -0.102 | -0.224 |
| C15orf40_Q8WUR7_62_GCVTIAIHAK (UniProt Q8WUR7) | -0.0875 | -0.0865 |
| C11orf54_Q9H0W9_149_CHDFQCALLANLFASEGQPGK (UniProt Q9H0W9) | -0.0371 | -0.162 |
| C1orf123_Q9NWV4_102_TIVEFECR (UniProt Q9NWV4) | 0.0586 | 0.102 |
| BRD1_O95696_341_GVGACIQCHK (UniProt O95696) | 0.1 | 0.204 |
| CAND1_Q86VP6_413_QTRPVQSWLCDPDAMEQGETPLTMLQSQVPNIVK (UniProt Q86VP6) | 0.0295 | -0.224 |
| C3orf38_Q5JPI3_224_CASSPHGLVMVGVAGTVHR (UniProt Q5JPI3) | 0.301 | 0.288 |
| BRAP_Q7Z569_519_ETCDQK (UniProt Q7Z569) | -0.105 | -0.0062 |
| C6orf120_Q7Z4R8_99_GDADLYVSASSLHPSFDDYELQSATCGPDAVSIPAHFR (UniProt Q7Z4R8) | 0.0909 | -0.109 |
| CAND1_Q86VP6_571_DLFTCTIK (UniProt Q86VP6) | 0.116 | 0.0279 |
| BUD31_P41223_137_IIECTHCGCR (UniProt P41223) | -0.108 | 0.0271 |
| BTK_Q06187_464_LVQLYGVCTK (UniProt Q06187) | 0.0992 | 0.233 |
